Experimental data: the supplement of paper PMC10849652
The list shows a part of the results.

Amino acid sequences for entries named in this document (tags omitted). A change or cut given only in a name is not applied to a line headed by its entry.
UniProt Q9Y2U5: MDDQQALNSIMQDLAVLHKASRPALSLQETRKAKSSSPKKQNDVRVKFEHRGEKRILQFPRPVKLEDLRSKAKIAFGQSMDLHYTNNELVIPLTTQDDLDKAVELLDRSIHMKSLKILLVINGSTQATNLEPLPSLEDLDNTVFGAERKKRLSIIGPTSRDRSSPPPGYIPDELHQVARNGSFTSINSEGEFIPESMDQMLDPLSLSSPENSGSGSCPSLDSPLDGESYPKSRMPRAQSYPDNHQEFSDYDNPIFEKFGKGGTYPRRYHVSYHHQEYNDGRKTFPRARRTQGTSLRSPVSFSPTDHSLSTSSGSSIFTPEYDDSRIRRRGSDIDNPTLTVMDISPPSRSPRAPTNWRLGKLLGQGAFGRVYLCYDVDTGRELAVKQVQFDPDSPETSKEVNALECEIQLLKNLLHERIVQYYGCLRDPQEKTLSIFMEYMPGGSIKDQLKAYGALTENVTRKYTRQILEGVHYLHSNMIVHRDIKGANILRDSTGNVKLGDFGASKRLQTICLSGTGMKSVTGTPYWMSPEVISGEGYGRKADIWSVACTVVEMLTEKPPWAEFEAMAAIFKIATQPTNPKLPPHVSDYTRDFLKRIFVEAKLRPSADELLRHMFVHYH
UniProt P45985: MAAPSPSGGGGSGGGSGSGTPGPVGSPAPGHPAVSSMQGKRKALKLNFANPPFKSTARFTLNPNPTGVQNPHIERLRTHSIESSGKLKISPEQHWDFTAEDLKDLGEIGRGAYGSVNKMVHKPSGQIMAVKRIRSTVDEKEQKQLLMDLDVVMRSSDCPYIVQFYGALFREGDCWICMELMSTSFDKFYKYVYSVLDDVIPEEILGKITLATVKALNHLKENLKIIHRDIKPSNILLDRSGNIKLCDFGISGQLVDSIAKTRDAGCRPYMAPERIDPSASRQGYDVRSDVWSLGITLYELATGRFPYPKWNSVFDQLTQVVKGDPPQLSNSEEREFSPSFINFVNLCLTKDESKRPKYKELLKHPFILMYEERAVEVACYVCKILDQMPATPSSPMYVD
UniProt P09960: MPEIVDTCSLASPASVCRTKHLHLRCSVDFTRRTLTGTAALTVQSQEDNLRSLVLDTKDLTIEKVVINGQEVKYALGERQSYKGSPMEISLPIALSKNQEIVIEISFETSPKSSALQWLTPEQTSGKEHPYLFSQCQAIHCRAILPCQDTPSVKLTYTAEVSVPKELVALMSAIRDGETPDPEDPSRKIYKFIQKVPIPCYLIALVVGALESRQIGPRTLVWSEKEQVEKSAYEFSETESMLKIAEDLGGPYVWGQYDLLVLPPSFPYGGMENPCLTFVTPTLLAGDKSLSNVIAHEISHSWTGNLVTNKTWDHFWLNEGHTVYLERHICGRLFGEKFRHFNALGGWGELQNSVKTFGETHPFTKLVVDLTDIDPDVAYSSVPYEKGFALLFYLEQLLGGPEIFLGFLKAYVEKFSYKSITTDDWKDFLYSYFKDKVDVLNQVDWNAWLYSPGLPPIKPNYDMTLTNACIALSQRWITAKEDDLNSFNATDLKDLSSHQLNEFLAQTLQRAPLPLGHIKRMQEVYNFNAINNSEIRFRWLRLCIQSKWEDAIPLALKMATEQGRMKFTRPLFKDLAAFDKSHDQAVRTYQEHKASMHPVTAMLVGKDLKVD
UniProt O00754: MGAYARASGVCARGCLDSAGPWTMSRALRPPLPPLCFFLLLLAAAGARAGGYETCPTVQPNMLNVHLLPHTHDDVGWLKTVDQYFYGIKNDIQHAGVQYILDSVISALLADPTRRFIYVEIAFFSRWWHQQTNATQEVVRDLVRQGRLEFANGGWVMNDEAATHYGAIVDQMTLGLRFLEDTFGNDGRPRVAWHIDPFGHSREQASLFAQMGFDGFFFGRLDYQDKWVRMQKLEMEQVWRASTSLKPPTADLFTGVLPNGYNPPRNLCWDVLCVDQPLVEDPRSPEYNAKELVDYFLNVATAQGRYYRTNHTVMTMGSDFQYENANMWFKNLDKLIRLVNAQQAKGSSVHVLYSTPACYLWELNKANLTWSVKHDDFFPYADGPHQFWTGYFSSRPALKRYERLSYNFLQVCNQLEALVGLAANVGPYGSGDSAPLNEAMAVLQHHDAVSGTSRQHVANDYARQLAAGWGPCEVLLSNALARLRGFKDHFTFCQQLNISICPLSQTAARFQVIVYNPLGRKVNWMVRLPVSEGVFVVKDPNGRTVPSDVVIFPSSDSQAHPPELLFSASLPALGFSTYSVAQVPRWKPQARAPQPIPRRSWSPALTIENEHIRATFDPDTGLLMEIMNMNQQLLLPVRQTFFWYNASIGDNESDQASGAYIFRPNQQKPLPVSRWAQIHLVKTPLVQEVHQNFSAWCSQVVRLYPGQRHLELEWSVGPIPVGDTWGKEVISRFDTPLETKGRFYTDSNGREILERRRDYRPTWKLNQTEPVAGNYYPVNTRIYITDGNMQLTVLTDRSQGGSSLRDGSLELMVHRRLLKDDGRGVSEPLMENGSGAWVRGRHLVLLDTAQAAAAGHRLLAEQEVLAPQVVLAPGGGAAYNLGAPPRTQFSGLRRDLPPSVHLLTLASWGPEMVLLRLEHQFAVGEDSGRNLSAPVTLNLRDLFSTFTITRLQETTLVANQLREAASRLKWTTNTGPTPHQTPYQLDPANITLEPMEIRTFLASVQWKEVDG
UniProt P43366: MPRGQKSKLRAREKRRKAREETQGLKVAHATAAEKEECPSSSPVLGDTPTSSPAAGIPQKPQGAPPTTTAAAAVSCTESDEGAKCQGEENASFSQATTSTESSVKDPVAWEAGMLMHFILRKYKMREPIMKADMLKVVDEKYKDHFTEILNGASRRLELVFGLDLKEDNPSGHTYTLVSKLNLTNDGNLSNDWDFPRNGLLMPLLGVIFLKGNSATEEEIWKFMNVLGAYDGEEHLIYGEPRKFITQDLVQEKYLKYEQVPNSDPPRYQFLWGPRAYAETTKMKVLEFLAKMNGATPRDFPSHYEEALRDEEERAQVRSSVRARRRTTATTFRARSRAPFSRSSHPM
UniProt P02788: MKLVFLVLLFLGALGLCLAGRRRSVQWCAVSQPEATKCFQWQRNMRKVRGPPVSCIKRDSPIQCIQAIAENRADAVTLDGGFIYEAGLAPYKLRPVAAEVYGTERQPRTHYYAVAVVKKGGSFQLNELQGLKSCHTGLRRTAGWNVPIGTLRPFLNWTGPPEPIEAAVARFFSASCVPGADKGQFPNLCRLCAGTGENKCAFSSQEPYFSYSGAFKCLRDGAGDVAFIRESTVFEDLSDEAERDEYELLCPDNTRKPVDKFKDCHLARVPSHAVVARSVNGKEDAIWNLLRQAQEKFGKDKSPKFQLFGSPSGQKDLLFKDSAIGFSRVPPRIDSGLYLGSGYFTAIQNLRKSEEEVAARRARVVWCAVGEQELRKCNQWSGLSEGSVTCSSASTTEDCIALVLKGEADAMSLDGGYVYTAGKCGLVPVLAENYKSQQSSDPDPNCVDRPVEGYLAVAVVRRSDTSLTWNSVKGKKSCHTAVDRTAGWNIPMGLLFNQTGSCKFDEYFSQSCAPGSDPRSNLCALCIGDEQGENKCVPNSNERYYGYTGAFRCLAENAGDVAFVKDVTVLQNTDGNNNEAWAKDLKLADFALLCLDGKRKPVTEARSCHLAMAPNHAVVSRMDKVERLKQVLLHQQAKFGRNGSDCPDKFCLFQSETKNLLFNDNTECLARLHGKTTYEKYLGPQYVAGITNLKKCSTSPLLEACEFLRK
UniProt P27361, whole entry, looked up: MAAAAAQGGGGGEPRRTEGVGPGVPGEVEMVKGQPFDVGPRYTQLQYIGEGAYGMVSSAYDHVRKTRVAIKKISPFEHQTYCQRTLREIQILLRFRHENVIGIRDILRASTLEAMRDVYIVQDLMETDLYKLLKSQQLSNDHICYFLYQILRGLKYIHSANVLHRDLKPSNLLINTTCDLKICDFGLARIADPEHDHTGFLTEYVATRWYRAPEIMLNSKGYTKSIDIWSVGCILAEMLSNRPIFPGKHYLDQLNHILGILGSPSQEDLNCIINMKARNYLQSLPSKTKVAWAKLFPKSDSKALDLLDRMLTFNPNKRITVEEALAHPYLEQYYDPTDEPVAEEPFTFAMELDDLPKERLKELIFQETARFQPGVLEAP
UniProt Q9NX47: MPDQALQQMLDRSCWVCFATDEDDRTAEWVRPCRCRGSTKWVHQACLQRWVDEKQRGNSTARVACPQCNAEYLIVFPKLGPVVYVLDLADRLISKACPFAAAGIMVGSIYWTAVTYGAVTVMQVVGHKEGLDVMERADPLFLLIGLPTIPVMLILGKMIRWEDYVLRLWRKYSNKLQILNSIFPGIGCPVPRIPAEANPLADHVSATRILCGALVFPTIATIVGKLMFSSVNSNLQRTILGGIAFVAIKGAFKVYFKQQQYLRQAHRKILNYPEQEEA
UniProt Q15691: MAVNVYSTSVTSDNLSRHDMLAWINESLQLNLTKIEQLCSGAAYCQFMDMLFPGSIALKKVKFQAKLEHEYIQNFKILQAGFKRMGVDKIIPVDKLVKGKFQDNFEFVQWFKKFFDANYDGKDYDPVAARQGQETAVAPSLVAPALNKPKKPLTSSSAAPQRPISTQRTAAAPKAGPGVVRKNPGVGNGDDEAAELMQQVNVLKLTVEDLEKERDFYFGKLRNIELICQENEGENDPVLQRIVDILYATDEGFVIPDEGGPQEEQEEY
UniProt Q16659, whole entry, looked up: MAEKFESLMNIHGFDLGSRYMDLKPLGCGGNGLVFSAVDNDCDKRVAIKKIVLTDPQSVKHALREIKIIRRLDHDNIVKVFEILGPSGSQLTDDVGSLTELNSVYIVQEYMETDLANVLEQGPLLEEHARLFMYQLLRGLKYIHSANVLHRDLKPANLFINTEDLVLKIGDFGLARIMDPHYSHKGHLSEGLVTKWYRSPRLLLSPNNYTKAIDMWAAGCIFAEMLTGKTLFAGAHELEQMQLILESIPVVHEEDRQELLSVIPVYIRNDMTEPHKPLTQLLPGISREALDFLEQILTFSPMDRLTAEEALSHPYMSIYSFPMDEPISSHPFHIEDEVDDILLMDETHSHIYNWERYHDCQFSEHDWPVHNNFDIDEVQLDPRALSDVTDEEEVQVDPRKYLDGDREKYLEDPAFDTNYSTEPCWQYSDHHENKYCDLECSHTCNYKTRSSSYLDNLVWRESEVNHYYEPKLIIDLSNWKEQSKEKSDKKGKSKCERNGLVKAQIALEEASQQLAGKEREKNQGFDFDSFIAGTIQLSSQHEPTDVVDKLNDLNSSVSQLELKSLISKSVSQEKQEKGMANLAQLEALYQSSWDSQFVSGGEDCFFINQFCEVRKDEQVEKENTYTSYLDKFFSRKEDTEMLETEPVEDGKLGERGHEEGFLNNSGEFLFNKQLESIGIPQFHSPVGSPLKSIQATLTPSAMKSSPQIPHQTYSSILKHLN
UniProt O15116: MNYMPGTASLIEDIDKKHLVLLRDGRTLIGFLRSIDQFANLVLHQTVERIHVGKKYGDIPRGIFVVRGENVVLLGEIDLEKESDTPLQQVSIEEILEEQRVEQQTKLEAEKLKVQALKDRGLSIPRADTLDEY
UniProt P28482, whole entry, looked up: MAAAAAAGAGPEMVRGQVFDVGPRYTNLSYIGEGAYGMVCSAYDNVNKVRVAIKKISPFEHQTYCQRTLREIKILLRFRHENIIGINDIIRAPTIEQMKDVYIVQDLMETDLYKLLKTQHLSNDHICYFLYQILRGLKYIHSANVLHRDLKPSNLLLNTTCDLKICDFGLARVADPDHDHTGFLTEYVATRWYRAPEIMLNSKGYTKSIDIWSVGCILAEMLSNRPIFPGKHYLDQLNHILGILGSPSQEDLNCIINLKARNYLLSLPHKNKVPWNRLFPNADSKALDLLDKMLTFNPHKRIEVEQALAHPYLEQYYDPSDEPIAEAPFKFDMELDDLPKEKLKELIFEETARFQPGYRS
UniProt Q14244: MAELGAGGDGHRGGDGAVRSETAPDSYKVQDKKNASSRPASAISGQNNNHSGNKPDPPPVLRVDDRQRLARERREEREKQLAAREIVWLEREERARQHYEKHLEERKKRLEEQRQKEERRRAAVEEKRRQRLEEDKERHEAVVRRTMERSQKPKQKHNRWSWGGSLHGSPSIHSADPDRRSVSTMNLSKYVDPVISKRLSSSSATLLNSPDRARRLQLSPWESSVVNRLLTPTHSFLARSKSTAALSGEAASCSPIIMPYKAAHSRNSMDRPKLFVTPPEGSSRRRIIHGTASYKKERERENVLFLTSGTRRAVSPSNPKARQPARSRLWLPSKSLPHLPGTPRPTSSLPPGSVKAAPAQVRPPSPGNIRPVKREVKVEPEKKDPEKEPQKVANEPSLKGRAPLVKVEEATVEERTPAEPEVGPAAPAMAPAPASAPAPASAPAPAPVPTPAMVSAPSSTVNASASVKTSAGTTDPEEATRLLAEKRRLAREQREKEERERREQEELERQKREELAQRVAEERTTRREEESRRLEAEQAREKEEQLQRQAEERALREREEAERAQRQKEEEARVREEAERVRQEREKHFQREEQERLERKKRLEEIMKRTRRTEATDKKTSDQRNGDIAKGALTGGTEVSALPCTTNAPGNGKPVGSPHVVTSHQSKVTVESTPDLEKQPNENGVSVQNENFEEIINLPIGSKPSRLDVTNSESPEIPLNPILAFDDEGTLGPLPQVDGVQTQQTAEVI

compound: c1cn2cc(-c3ccc4cn[nH]c4c3)nc(Nc3ccc(N4CCOCC4)cc3)c2n1 [entospletinib]; assay: log2 fold change, soluble protein after heating vs DMSO (PISA); higher = thermal stabilisation; K562 cells, 10 uM, 30 min; active = over 0.2 and 3.5 SD of the protein, either way, in both replicates (recomputed)
How it was run: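 Thermal stability values are relative to control samples and come from duplicates. They are expressed as log2 fold changes. For measurement, K562 cells (2×10^6 cells/mL) received 10 μM compound for 30 min, and aliquots were heated for 3 min over 48°C-58°C, pooled, and extracted at 4°C in PBS with 0.5% NP-40. Soluble protein, the supernatant after 21,000xg for 90 min, was quantified by TMTpro 16plex LC-MS/MS with equalised channel sums.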

log2 fold change, inactive:
MAP3K2 (UniProt Q9Y2U5) -0.31
LRSAM1 (UniProt Q6UWE0) 0.014
MACF1 (UniProt H3BQK9) 0.068
MAP2K4 isoform 2 (UniProt P45985) 0.056
MAK16 (UniProt Q9BXY0) 0.005
LSM5 (UniProt Q9Y4Y9) -0.025
MARCHF6 (UniProt O60337) -0.055
LTA4H (UniProt P09960) -0.029
LYAR (UniProt Q9NX58) 0.033
LSM3 (UniProt P62310) 0.008
MAN2B1 (UniProt O00754) 0.023
MAGEB1 (UniProt P43366) 0.082
MAGEC1 (UniProt O60732) 0.191
MALSU1 (UniProt Q96EH3) 0.039
MARS (UniProt P56192) 0.039
LTBR (UniProt P36941) 0.454
LTF (UniProt P02788) 0.384
LSM6 (UniProt P62312) 0.069
MAPK3 (UniProt P27361) -0.085
MARCHF5 (UniProt Q9NX47) 0.008
LSM12 isoform 2 (UniProt Q3MHD2) 0.014
MAPRE1 (UniProt Q15691) -0.014
MAPK6 (UniProt Q16659) 0.069
LSG1 (UniProt Q9H089) 0.105
LSM1 (UniProt O15116) -0.018
MAPK1 (UniProt P28482) -0.047
MAP7D3 (UniProt Q8IWC1) 0.015
MAP7 isoform 7 (UniProt Q14244) 0.086

Two records drawn at random from the list so far, as already listed:
log2 fold change, inactive:
LYAR (UniProt Q9NX58) 0.033
LTF (UniProt P02788) 0.384
